Assay results reported in the supplement of paper PMC11409438.
This is one part of the list. Repeats are few or missing, and single values can be far off.

What was measured:
[1] = system: Caenorhabditis elegans ST65 (ncIs13[ajm-1::GFP]); assay: 'Larvae/adult' ratio (MetaXpress pharynx counts; minimum value 1, so it appears to include adults; growth inhibition read-out); conditions: 10 µM; exposure time: 4-5 days from L1 at 20°C
[2] = system: Caenorhabditis elegans ST65 (ncIs13[ajm-1::GFP]); assay: vulvae per adult worm (MAPK/ERK-dependent vulval induction, MetaXpress) (vulvae/adult); higher = more vulval induction (less MAPK/ERK inhibition); conditions: 10 µM; exposure time: 4-5 days from L1 at 20°C

Row | SMILES | 'Larvae/adult' ratio [1] | vulvae per adult worm [2]
1 | COc1cc2ncnc(Oc3cccc(NC(=O)Nc4cc(C(C)(C)C(F)(F)F)on4)c3)c2cc1OC | 1.61 | 0.773
2 | COc1cc2ncnc(Nc3ccc(F)c(Cl)c3)c2cc1OCCCN1CCOCC1 [Gefitinib (ZD1839)] | 2.19 | 1.25
3 | COc1cc(CCc2cc(NC(=O)c3ccc(N4CC(C)NC(C)C4)cc3)n[nH]2)cc(OC)c1 (configuration not stated) | 1.87 | 0.516
4 | CNC(=O)c1ccccc1Sc1ccc2c(/C=C/c3ccccn3)n[nH]c2c1 [Axitinib] | 1.79 | 0.862
5 | Cc1cccc(-c2nn3c(c2-c2ccnc4ccc(C(N)=O)cc24)CCC3)n1 | 1.74 | 0.971
6 | CC(C)NC[C@@H](C(=O)N1CCN(c2ncnc3c2[C@H](C)C[C@H]3O)CC1)c1ccc(Cl)cc1 [Ipatasertib (GDC-0068)] | 1.8 | 1
7 | O=C(O)C(=O)O.[NH-][C@@H]1CCCC[C@H]1[NH-].[Pt+2] [Oxaliplatin] | 2.27 | 0.6
8 | CC(=O)O[C@]1(C(C)=O)CC[C@H]2[C@@H]3C=C(C)C4=CC(=O)CC[C@]4(C)[C@H]3CC[C@@]21C [Megestrol Acetate] | 2.68 | 0.92
9 | CC(C)(C)C[C@@H]1N[C@@H](C(=O)N[C@H]2CC[C@H](O)CC2)[C@H](c2cccc(Cl)c2F)[C@]12C(=O)Nc1cc(Cl)ccc12 | 1.5 | 1.25
10 | CC(C)(C)Cn1c(N)nc2ccc(-c3[nH]c(C(C)(C)C)nc3-c3ccc(F)cc3)nc21 | 1.69 | 1.05
11 | CC(=O)Nc1cccc(-n2c(=O)n(C3CC3)c(=O)c3c(Nc4ccc(I)cc4F)n(C)c(=O)c(C)c32)c1 | 1.82 | 0.0714
12 | C=CCn1c(=O)c2cnc(Nc3ccc(N4CCN(C)CC4)cc3)nc2n1-c1cccc(C(C)(C)O)n1 [Adavosertib (MK-1775)] | 2.1 | 0.905
13 | COCCNCc1ccc(-c2cc3nccc(Oc4ccc(NC(=O)C5(C(=O)Nc6ccc(F)cc6)CC5)cc4F)c3s2)nc1 [Sitravatinib (MGCD516)] | 2.07 | 0.951
14 | COc1cc(Nc2c(C#N)cnc3cc(OCCCN4CCN(C)CC4)c(OC)cc23)c(Cl)cc1Cl [Bosutinib (SKI-606)] | 2.45 | 0.818
15 | CCc1cncnc1N1CCN(Cc2nc3ccc(C(F)(F)F)cc3[nH]2)CC1 | 4.17 | 0.167
16 | Nc1ccn([C@@H]2O[C@H](CO)[C@@H](O)C2(F)F)c(=O)n1 [Gemcitabine] | 1.1 | 0.9

Row | SMILES | 'Larvae/adult' ratio [1] | vulvae per adult worm [2]
17 | CN(C)C1CCN(C(=O)c2ccc(NC(=O)Nc3ccc(-c4nc(N5CCOCC5)nc(N5CCOCC5)n4)cc3)cc2)CC1 | 2 | 0.806
18 | CC(=O)Nc1ccc(C(=O)Nc2ccccc2N)cc1 [Tacedinaline (CI994)] | 1.67 | 1.08
19 | CN1CC[C@@H](NC(=O)Nc2ccc(C#N)cc2)C[C@@H]1c1nc2ccccc2[nH]1 | 1.7 | 0.913
20 | CN(C)C(=O)c1cc2cnc(Nc3ccc(N4CCNCC4)cn3)nc2n1C1CCCC1 [Ribociclib (LEE011)] | 2.5 | 0.833
21 | Clc1ccc(C(c2ccccc2Cl)C(Cl)Cl)cc1 (configuration not stated) [Mitotane] | 2.14 | 0.5
22 | CCc1cc2c(cc1N1CCC(N3CCOCC3)CC1)C(C)(C)c1[nH]c3cc(C#N)ccc3c1C2=O | 1.94 | 0.824
23 | CCOc1cc2ncc(C#N)c(Nc3ccc(OCc4ccccn4)c(Cl)c3)c2cc1NC(=O)/C=C/CN(C)C [Neratinib (HKI-272)] | 1.91 | 1.06
24 | CNC(=O)CN1CCC(Oc2cc3c(Nc4cccc(Cl)c4F)ncnc3cc2OC)CC1 [Sapitinib (AZD8931)] | 1.7 | 0.919
25 | O=C(NC1CCNCC1)c1n[nH]cc1NC(=O)c1c(Cl)cccc1Cl | 2.09 | 0.914
26 | CO[C@H]1CC[C@H](N2C(=O)CNc3ncc(-c4ccc(C(C)(C)O)nc4)nc32)CC1 | 2.46 | 0.769
27 | CCCCCOC(=O)Nc1nc(=O)n([C@@H]2O[C@H](C)[C@@H](O)[C@H]2O)cc1F [Capecitabine] | 1.73 | 1
28 | Cc1ccc(C(=O)Nc2ccc(CN3CCN(C)CC3)c(C(F)(F)F)c2)cc1C#Cc1cnc2cccnn12 | 3.6 | 0.2
29 | CCCOc1ccn2c(C(C)=O)cc(-c3ccccc3S(C)(=O)=O)c2c1 | 3.29 | 1.76
30 | CCNc1nc(Nc2cc(F)c(C(=O)N3CCOCC3)cc2OC)ncc1C(F)(F)F | 3.57 | 1.43
31 | O=C(CCCCCCNC(=O)c1cnc(N(c2ccccc2)c2ccccc2)nc1)NO [Ricolinostat (ACY-1215)] | 2 | 1.04

Gathered by group: the entries above with a tert-butyl group
Row | SMILES | 'Larvae/adult' ratio [1] | vulvae per adult worm [2]
9 | CC(C)(C)C[C@@H]1N[C@@H](C(=O)N[C@H]2CC[C@H](O)CC2)[C@H](c2cccc(Cl)c2F)[C@]12C(=O)Nc1cc(Cl)ccc12 | 1.5 | 1.25
10 | CC(C)(C)Cn1c(N)nc2ccc(-c3[nH]c(C(C)(C)C)nc3-c3ccc(F)cc3)nc21 | 1.69 | 1.05
